Data reported in patent US6723699B1 (Cephalon, Inc., priority 1989, dated 2004).
Plain letter strings leave the end groups untold.

Assay: general procedure: Fmoc solid-phase peptide synthesis; p-alkoxybenzylalcohol resin / preloaded Fmoc-amino acid resins (Biosearch, Bachem); BOP/HOBT (TBTU/HOBT for cyclic TYCAPAKSE)
Conditions: whole synthesis

Row | Sequence | crude mass (scale 1.0 gram of resin) [mg] | crude mass (scale 0.5 g of resin) [mg]
1 | EPYCAPPAKSE | 110 | –
2 | TYCAPAKSE | – | 125
